Measured values: paper PMC7892883, “Transcription activation by a sliding clamp” (Nature Communications, 2021)

Assays:
Assay in all cases: EMSA
Conditions in all cases: heparin 0.1 mg/ml challenge, open complex; EMSA: 0.4 uM gp55, 0.2 uM RNAP, 0.2 uM DNA in 10 mM HEPES pH 7.5, 50 mM KCl, 5% glycerol, 0.1 mg/ml heparin; DNA 20 min at 37 C, heparin 1 min at 22 C; recombinant protein; label: none (gel stained)
[1] = test system: E. coli RNA polymerase core + gp55 R114A
[2] = test system: E. coli RNA polymerase core + gp55 R114X (HLH motif truncated)
[3] = test system: E. coli RNA polymerase core + gp55 wild type

CTAATAAAGAGCTCAGCACTATTACTGAGAGTATAAATACTCCTGATACTGAAGCAGCCGGACT (double strand) [T4 late promoter EMSA scaffold]
binding result [1]: binds more weakly
binding result [2]: binds more weakly
binding result [3]: binds

Construct, isoform or probe ends are uncertain for at least one entry. For part of these data: Weaker means in comparison with the reference protein, sequence or condition of that experiment. For part of these data: At least one verdict rests on a figure or table, not on a statement of the authors.
